Results on three molecules are retold here after paper PMC7576810.

Chains of the proteins cited; added tags and fusions are not shown. Lines headed by an entry give the natural chain unless they say otherwise; changes in a name come on top. A line that says so, or that is headed by a name, gives the form on record, which may keep a tag or linker.
Flag-tagged EVI1-WT (Q03112, form named): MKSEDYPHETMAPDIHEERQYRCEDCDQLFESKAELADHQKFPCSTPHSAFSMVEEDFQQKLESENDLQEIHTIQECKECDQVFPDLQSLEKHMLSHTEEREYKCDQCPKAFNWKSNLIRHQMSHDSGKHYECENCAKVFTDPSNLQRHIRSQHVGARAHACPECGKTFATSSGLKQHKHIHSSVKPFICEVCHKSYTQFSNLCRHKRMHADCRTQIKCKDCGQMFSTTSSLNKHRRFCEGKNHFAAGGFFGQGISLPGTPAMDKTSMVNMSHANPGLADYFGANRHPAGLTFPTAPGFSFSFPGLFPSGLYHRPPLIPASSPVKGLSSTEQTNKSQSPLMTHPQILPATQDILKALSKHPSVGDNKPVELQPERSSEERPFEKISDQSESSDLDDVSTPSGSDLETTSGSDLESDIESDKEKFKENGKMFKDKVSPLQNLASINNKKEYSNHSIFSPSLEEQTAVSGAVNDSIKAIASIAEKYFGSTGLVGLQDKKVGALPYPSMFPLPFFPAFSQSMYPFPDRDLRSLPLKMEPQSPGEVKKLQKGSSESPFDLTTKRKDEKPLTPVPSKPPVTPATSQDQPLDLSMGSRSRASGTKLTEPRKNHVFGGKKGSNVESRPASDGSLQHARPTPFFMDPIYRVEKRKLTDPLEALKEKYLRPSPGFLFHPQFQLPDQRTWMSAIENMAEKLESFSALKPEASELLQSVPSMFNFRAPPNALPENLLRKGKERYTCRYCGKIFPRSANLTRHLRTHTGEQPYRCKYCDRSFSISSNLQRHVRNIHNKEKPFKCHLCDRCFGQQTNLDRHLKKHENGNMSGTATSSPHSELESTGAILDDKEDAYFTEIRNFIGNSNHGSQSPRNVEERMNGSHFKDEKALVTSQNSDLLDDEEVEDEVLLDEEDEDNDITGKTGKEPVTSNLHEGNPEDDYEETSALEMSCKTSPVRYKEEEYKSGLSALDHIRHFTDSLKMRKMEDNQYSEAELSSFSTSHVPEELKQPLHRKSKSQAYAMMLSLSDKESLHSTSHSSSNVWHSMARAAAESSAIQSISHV
Flag-tagged EVI1-S436A (Q03112, form named): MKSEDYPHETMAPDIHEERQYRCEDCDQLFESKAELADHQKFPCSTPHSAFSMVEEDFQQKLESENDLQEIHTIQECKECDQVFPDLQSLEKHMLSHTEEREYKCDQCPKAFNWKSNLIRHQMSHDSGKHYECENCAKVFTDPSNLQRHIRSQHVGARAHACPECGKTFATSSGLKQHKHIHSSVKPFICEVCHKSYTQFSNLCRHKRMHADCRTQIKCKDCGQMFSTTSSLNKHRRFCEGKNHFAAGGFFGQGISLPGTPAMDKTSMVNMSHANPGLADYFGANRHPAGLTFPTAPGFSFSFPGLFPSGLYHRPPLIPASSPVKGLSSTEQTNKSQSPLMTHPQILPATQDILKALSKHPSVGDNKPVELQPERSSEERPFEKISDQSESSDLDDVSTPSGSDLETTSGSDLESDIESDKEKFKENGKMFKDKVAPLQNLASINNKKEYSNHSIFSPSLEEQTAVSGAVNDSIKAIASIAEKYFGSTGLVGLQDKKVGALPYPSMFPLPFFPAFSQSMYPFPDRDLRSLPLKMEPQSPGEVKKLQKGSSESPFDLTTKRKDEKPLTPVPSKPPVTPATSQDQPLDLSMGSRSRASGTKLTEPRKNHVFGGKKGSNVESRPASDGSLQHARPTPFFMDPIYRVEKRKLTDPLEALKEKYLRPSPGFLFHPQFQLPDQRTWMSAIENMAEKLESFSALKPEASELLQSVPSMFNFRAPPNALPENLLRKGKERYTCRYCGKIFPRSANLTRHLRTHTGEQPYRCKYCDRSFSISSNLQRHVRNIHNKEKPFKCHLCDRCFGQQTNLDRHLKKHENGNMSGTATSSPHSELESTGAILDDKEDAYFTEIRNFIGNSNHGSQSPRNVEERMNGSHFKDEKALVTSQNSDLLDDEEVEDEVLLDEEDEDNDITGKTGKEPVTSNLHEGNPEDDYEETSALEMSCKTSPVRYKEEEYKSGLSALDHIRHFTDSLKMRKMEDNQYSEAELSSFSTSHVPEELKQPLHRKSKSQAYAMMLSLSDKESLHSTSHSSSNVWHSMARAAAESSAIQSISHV
UniProt Q00526: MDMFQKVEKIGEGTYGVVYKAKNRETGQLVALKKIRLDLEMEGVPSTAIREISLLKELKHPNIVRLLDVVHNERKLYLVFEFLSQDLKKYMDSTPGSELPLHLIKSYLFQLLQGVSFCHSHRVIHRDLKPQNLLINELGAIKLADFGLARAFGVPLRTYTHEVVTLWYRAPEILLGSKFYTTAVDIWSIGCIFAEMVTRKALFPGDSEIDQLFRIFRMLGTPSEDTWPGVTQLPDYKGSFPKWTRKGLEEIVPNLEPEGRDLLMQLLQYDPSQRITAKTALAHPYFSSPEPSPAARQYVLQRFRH
UniProt P68400: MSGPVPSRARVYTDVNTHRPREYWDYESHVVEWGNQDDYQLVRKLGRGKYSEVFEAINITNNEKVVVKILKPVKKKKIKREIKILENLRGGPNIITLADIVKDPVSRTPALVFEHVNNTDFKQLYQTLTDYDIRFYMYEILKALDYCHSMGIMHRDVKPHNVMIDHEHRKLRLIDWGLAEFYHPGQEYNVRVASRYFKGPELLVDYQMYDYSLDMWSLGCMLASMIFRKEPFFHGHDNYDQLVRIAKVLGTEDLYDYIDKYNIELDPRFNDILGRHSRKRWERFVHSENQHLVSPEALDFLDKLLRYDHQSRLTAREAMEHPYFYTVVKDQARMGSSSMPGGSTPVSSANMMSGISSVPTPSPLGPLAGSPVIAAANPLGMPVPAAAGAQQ

Common to all, as to assay: affinity purification with mass spectrometry; FLAG-IP of HEK293 cells expressing FLAG-tagged EVI1-WT or EVI1-S436A versus empty vector control; in-gel digested samples analysed by MS; CRAPome used to consider nonspecific interactions
Test [1] deals with Flag-tagged EVI1-WT (human) (UniProt Q03112).
Test [2] addresses Flag-tagged EVI1-S436A (human) (UniProt Q03112).
The target of test [3] is Flag-tagged EVI1-WT (human) (UniProt Q03112). This is another data set of the same source.

Like-named read-outs stand apart in the source and are kept apart here. No constants are given. Whether binding was seen depends on the method and setting. In cells and extracts the contact can be indirect. A yes stands for co-enrichment or nearness to the bait. Other partners may have been found. For some of these results: No binding means not detected with the bait.

Consider “CDK3 (from UniProt Q00526 1-305) (enzyme)”, for which, in test [1], the binding entry is “binds”.

In the case of “casein kinase CSNK2A1 (from UniProt P68400 1-391) (enzyme)”, the binding entry in test [1] is “binds”.

B1: PRDX1 (protein, UniProt Q06830 1-199)
chain: MSSGNAKIGHPAPNFKATAVMPDGQFKDISLSDYKGKYVVFFFYPLDFTFVCPTEIIAFSDRAEEFKKLNCQVIGASVDSHFCHLAWVNTPKKQGGLGPMNIPLVSDPKRTIAQDYGVLKADEGISFRGLFIIDDKGILRQITVNDLPVGRSVDETLRLVQAFQFTDKHGEVCPAGWKPGSDTIKPDVQKSKEYFSKQK
Consider B1, for which the binding entry in test [2] was “binds”; in test [3], “no binding”.
